Results are given in words; binding and its absence hold for the method and conditions named. Binding seen in cells or lysates may run through a third protein. Some binding calls cover weakened binding; strength is not graded here.
Molecular target: T1, NF2, endogenous in mouse hippocampus (mouse (endogenous in hippocampus)) (UniProt P46662)
T1 sequence: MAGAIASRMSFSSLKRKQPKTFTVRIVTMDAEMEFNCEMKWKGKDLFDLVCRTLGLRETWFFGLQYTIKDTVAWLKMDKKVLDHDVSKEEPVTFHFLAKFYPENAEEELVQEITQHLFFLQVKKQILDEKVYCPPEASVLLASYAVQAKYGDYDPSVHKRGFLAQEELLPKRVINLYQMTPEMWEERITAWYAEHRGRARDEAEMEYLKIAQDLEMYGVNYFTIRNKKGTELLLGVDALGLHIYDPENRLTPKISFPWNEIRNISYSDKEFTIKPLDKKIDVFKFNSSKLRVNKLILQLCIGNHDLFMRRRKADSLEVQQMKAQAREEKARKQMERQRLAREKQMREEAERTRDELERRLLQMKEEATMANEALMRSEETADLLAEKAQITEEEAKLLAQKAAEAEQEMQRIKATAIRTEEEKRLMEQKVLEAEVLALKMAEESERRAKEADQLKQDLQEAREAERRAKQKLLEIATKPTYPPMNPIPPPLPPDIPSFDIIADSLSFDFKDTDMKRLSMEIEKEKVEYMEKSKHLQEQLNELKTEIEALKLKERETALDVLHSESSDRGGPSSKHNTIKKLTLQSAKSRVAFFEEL
Test: co-IP; hippocampal lysates in RIPA buffer (150 ug total protein) of WT, PLPP/CIN^Tg and PLPP/CIN^-/- mice, with saline or 2 h after kainic acid (25 mg/kg i.p.); NF2 or PLPP/CIN antibody and protein G sepharose, 4 °C overnight; western blot

binding: binds
B1: PLPP/CIN, in mouse hippocampus (enzyme, UniProt P60487 1-292)
chain: MARCERLRGAALRDVLGQAQGVLFDCDGVLWNGERIVPGAPELLQRLARAGKNTLFVSNNSRRARPELALRFARLGFAGLRAEQLFSSALCAARLLRQRLSGPPDASGAVFVLGGEGLRAELRAAGLRLAGDPGEDPRVRAVLVGYDEQFSFSRLTEACAHLRDPDCLLVATDRDPWHPLSDGSRTPGTGSLAAAVETASGRQALVVGKPSPYMFQCITEDFSVDPARTLMVGDRLETDILFGHRCGMTTVLTLTGVSSLEEAQAYLTAGQRDLVPHYYVESIADLMEGLED
